Common to all, as to assay: co-IP
Assay [1] concerns the target Rga6(ΔPBR)-GFP (S. pombe).
The target in assay [2] is Rga6(ΔN3)-GFP (S. pombe).
The target in assay [3] is Rga6(ΔN2)-GFP (S. pombe).
Assay [4] addresses Rga6(ΔN1)-GFP (S. pombe).

No constants are given. Whether binding was seen depends on the method and setting. Binding seen in cells or lysates may run through a third protein. Binding can be weak; no strength is given.

B1: Spn1-tdTomato (protein, UniProt O36023 1-469)
chain: MASMVLADGMPTVKDDSTRSRGSDVDSFTSTDNVTQINVEAAISENKNEEKPIQDNSEQEFNPHVSIIQRQLNGYVGFASLPNQWHRRCVRQGFNFNVLVLGESGSGKSTLVNTLLNRDVYPPTQKSLTGDFGVNPEPTVMINSSAVEIVENGISLQLNVIDTPGFGDFIDNTDCWQPVLTDIEGRYDQYLELEKHNPRSTIQDPRVHACIFFIQPTGHAISAMELRVMLALHEKVNIIPIIAKADTLTDDELNFTKEMILRDIQYHNIRIFFPPTYETDDPESVAENADIMSRIPFAIIASNTFVVNNEGKRVRGRRYPWGVVEVDNEEHSDFPKLREMLIRTHLEELKEQTNKLYEAYRTERLLSSGISQDHSVFREVNPSAKLEEERALHEEKLMKMEAEMKTIFSQKVQEKEDRLKQSENELRTRHREMKAALEKQKADLIDHKNRLMQAKAAAENEKSKRKFFK
Consider B1, for which the binding entry is recorded as “binds weakly” in assay [1], “binds” in assay [2], “binds” in assay [3] and “binds” in assay [4].

(Values after publication doi:10.1101/2021.03.30.437639.)
